Measurements taken from PubChem BioAssay AID248 (DTP/NCI, 2004).
The list does not hold the whole screen: it gathers tests that were run many times, whatever their T/C, doses with no T/C, and many T/C values between a quarter and a half above the control. Further doses and runs are listed elsewhere. T/C is the treated group as % of the vehicle group. Some entries give survivors of the animals treated and no T/C: the source holds a T/C of zero for them, seemingly a mark for toxic or unscored doses. Some survivor counts are full or nearly so, which does not show that the dose was tolerated: the source hardly ever lists a survival T/C far under the control, and the zero likely stands for such cases as well. Survivors were counted at the toxicity check, usually on the fifth day, unless a day is given; later deaths do not show. Schedules are NCI's codes, read here as Q, the interval in days (D) or hours (H), X, the number of doses. Some doses were run more than once; their values stand side by side, smallest first. Where survival is the endpoint, the PubChem record calls one and a half times the control and up active, and a quarter to a half above the control has no call in these data; cut-offs in other NCI protocols can differ. Some T/C values are followed by the survivors on the day toxicity was checked, most often the fifth; without a count, all were alive then.

System: L1210 leukemia ip in BDF1 mice, survival T/C
Test: NCI In Vivo Anticancer Drug Screen. Data for tumor model L1210 Leukemia (intraperitoneal) in B6D2F1 (BDF1) mice
Details: T/C endpoint: mean survival time, higher T/C = longer survival
[1] = dose: 80.0 mg/kg/injection, schedule: Q01DX001 (ip), vehicle: saline
[2] = dose: 100.0 mg/kg/injection, schedule: Q01DX001 (ip), vehicle: saline
[3] = dose: 200.0 mg/kg/injection, schedule: Q01DX001 (ip), vehicle: saline
[4] = dose: 400.0 mg/kg/injection, schedule: Q01DX001 (ip), vehicle: saline
[5] = dose: 200.0 mg/kg/injection, schedule: Q04DX003 (ip), vehicle: saline with Tween-80
[6] = dose: 200.0 mg/kg/injection, schedule: Q04DX003 (ip), vehicle: saline
[7] = dose: 100.0 mg/kg/injection, schedule: Q04DX003 (ip), vehicle: Klucel (hydroxypropylcellulose) (HPC)
[8] = dose: 200.0 mg/kg/injection, schedule: Q04DX003 (ip), vehicle: Klucel (hydroxypropylcellulose) (HPC)
[9] = dose: 400.0 mg/kg/injection, schedule: Q04DX003 (ip), vehicle: Klucel (hydroxypropylcellulose) (HPC)
[10] = dose: 200.0 mg/kg/injection, schedule: Q01DX009 (ip), vehicle: Klucel (hydroxypropylcellulose) (HPC)
[11] = dose: 400.0 mg/kg/injection, schedule: Q01DX009 (ip), vehicle: Klucel (hydroxypropylcellulose) (HPC)

How did the survivor count (dose: 25.0 mg/kg/injection, schedule: Q04DX003 (ip), vehicle: carboxymethylcellulose (CMC)) turn out when `CC[n+]1c(C=Nc2ccc(N(C)C)cc2)sc2ccccc21` was run?
The survivor count was 1 of 6.

And the survivor count (dose: 50.0 mg/kg/injection, schedule: Q04DX002 (ip), vehicle: carboxymethylcellulose (CMC))?
The survivor count was 0 of 3 and 0 of 6.

And the survivor count (dose: 50.0 mg/kg/injection, schedule: Q04DX003 (ip), vehicle: carboxymethylcellulose (CMC))?
The survivor count was 0 of 6.

What about the survivor count (dose: 100.0 mg/kg/injection, schedule: Q04DX002 (ip), vehicle: carboxymethylcellulose (CMC)) of the same molecule?
The survivor count was 0 of 6.

And the survivor count (dose: 200.0 mg/kg/injection, schedule: Q04DX002 (ip), vehicle: carboxymethylcellulose (CMC))?
The survivor count was 0 of 6.

And the survivor count (dose: 400.0 mg/kg/injection, schedule: Q04DX002 (ip), vehicle: carboxymethylcellulose (CMC))?
The survivor count was 0 of 6.

`CCN1/C(=C/C(C)=C/c2[se]c3ccccc3[n+]2CC)[Se]c2ccc(OC)cc21` was tested. Which survivor count [1] did it give?
The survivor count was 0 of 6.

What about the survivor count [2] of the same molecule?
The survivor count was 0 of 6.

And the survivor count [3]?
The survivor count was 0 of 6.

And the survivor count [4]?
Its survivor count is 0 of 6.

Which survivor count [5] does the source give for `O=C(Nc1ccc(Cl)cc1[N+](=O)[O-])Oc1ccc(Cl)cc1Cc1ccccc1` here?
The survivor count was 6 of 6.

How did the survivor count (dose: 100.0 mg/kg/injection, schedule: Q01DX001 (ip), vehicle: acetone) turn out when `COc1cc2c(c3c1c(=O)c1ccccc1n3C)C=CC(C)(C)O2` was run?
Its survivor count is 1 of 6.

And the survivor count (dose: 200.0 mg/kg/injection, schedule: Q01DX001 (ip), vehicle: acetone)?
The survivor count was 0 of 6 and 3 of 6.

And the survivor count (dose: 200.0 mg/kg/injection, schedule: Q01DX009 (ip), vehicle: acetone)?
The survivor count was 5 of 6.

And the survivor count (dose: 400.0 mg/kg/injection, schedule: Q01DX001 (ip), vehicle: acetone)?
Its survivor count is 0 of 6.

What about the survivor count (dose: 400.0 mg/kg/injection, schedule: Q01DX009 (ip), vehicle: acetone) of the same molecule?
Its survivor count is 0 of 6.

And the survivor count (dose: 800.0 mg/kg/injection, schedule: Q01DX001 (ip), vehicle: acetone)?
The survivor count was 0 of 6.

For `CCN(CC)CCCC(C)Nc1c2ccc(Cl)cc2nc2cc(Cl)ccc12` (stereo not given), which survivor count (dose: 100.0 mg/kg/injection, schedule: Q01DX009 (ip), vehicle: saline) is on record?
Its survivor count is 5 of 6.

What about the survivor count [6] of the same molecule?
The survivor count was 0 of 6.

What about the survivor count (dose: 400.0 mg/kg/injection, schedule: Q04DX003 (ip), vehicle: saline) of the same molecule?
Its survivor count is 0 of 6.

How did the survivor count (dose: 6.25 mg/kg/injection, schedule: Q01DX001 (ip), vehicle: saline) turn out when `CN(C)C(=O)Oc1cccc2c1ccc[n+]2C` was run?
The survivor count was 0 of 6.

What about the survivor count (dose: 12.5 mg/kg/injection, schedule: Q01DX001 (ip), vehicle: saline) of the same molecule?
The survivor count was 0 of 6.

And the survivor count (dose: 25.0 mg/kg/injection, schedule: Q01DX001 (ip), vehicle: saline)?
Its survivor count is 0 of 6.

What about the survivor count (dose: 50.0 mg/kg/injection, schedule: Q01DX001 (ip), vehicle: saline) of the same molecule?
The survivor count was 0 of 6.

And the survivor count [2]?
The survivor count was 0 of 6.

And the survivor count [3]?
The survivor count was 0 of 6.

What about the survivor count [4] of the same molecule?
Its survivor count is 0 of 6.

With `CS(=O)(=O)CCCl` as the molecule, how does the survivor count (dose: 400.0 mg/kg/injection, schedule: Q01DX009 (ip), vehicle: carboxymethylcellulose (CMC)) read?
Its survivor count is 0 of 3 and 0 of 6.

Which survivor count (dose: 200.0 mg/kg/injection, schedule: Q04DX003 (ip), vehicle: distilled water + Tween-80) does the source give for `CC[N-]c1nncs1.CC[N-]c1nncs1.CC[N-]c1nncs1.CC[N-]c1nncs1.[Cl][Rh][Cl]` here?
Its survivor count is 1 of 6.

Which survivor count [3] does the source give for `CCC[CH2][Sn]1([CH2]CCC)[O]C(=O)C2C(C=C(C)C)C=C(C)C(C)C2C(=O)[O]1` (stereo not given) here?
The survivor count was 0 of 4.

And the survivor count [4]?
Its survivor count is 0 of 4.

With `Cc1cc(N(CCOS(C)(=O)=O)CCOS(C)(=O)=O)ccc1C=Nc1ccc2ccccc2c1` as the molecule, how does the T/C (dose: 30.0 mg/kg/injection, schedule: Q04DX003 (ip), vehicle: Klucel (hydroxypropylcellulose) (HPC)) read?
The T/C was 132 % of control.

What about the T/C (dose: 40.0 mg/kg/injection, schedule: Q04DX003 (ip), vehicle: Klucel (hydroxypropylcellulose) (HPC)) of the same molecule?
The T/C was 128 % of control.

What about the survivor count [7] of the same molecule?
Its survivor count is 6 of 6.

What about the survivor count [8] of the same molecule?
The survivor count was 6 of 6.

What about the survivor count [9] of the same molecule?
Its survivor count is 0 of 6.

How did the survivor count (dose: 400.0 mg/kg/injection, schedule: Q04DX002 (ip), vehicle: Klucel (hydroxypropylcellulose) (HPC)) turn out when `CCCCN(CCCC)C(=O)c1ccccc1C(=O)O` was run?
The survivor count was 0 of 3.

How did the survivor count [10] turn out when `COc1ccc(/C=N/NC(=S)Nc2ccccc2)cc1OC` was run?
The survivor count was 0 of 6.

How did the survivor count [5] turn out when `COc1cc(OC)c2c(=O)c3ccccc3[nH]c2c1` was run?
Its survivor count is 6 of 6.

Which results are given for `Cc1cc(O)c2cc3c(O)c(O)ccc3cc2c1`?
survivor count (dose: 16.0 mg/kg/injection, schedule: Q01DX015 (ip), vehicle: saline): 2 of 6; survivor count (dose: 20.0 mg/kg/injection, schedule: Q01DX001 (ip), vehicle: saline): 0 of 6; survivor count (dose: 32.0 mg/kg/injection, schedule: Q01DX015 (ip), vehicle: saline): 2 of 6; survivor count (dose: 40.0 mg/kg/injection, schedule: Q01DX001 (ip), vehicle: saline): 0 of 6; survivor count (dose: 50.0 mg/kg/injection, schedule: Q01DX001 (ip), vehicle: carboxymethylcellulose (CMC)): 3 of 6; survivor count [1]: 0 of 6; survivor count (dose: 100.0 mg/kg/injection, schedule: Q01DX001 (ip), vehicle: carboxymethylcellulose (CMC)): 3 of 6; survivor count (dose: 200.0 mg/kg/injection, schedule: Q01DX001 (ip), vehicle: carboxymethylcellulose (CMC)): 5 of 6; survivor count (dose: 400.0 mg/kg/injection, schedule: Q01DX001 (ip), vehicle: carboxymethylcellulose (CMC)): 0 of 6

How did the survivor count [11] turn out when `CNO` was run?
The survivor count was 0 of 6.

With `NC(N)=NCCCC(NC(=O)OCc1ccccc1)C(=O)Nc1ccc2ccccc2c1` (stereo not given) as the molecule, how does the survivor count [11] read?
The survivor count was 0 of 6.

How did the survivor count [4] turn out when `CCN(CC)CC(Cl)COc1ccccc1C` (stereo not given) was run?
The survivor count was 2 of 4.

With `C(=P(c1ccccc1)(c1ccccc1)c1ccccc1)[P+](c1ccccc1)(c1ccccc1)c1ccccc1.[Br][Cu][Br]` as the molecule, how does the survivor count (dose: 12.5 mg/kg/injection, schedule: Q01DX009 (ip), vehicle: Klucel (hydroxypropylcellulose) (HPC)) read?
The survivor count was 2 of 6.

And the survivor count (dose: 25.0 mg/kg/injection, schedule: Q01DX009 (ip), vehicle: Klucel (hydroxypropylcellulose) (HPC))?
Its survivor count is 0 of 6.

And the survivor count (dose: 50.0 mg/kg/injection, schedule: Q01DX009 (ip), vehicle: Klucel (hydroxypropylcellulose) (HPC))?
Its survivor count is 0 of 6.

What about the survivor count (dose: 100.0 mg/kg/injection, schedule: Q01DX009 (ip), vehicle: Klucel (hydroxypropylcellulose) (HPC)) of the same molecule?
The survivor count was 1 of 6.

What about the survivor count [10] of the same molecule?
Its survivor count is 0 of 6.

And the survivor count [11]?
The survivor count was 0 of 6.

How did the survivor count [6] turn out when `CC(=O)NCCN` was run?
Its survivor count is 6 of 6.

Which survivor count (dose: 150.0 mg/kg/injection, schedule: Q04DX003 (ip), vehicle: other) does the source give for `c1ccc(C2c3cc4ccccc4cc3Oc3ccc4ccccc4c32)cc1` (stereo not given) here?
The survivor count was 6 of 6.

Which survivor count (dose: 50.0 mg/kg/injection, schedule: Q04DX002 (ip), vehicle: saline with Tween-80) does the source give for `C[N+](C)(CC(=O)Nc1ccc(Cl)cc1)Cc1ccc2c(c1)CCCC2` here?
Its survivor count is 1 of 3.

What about the survivor count (dose: 100.0 mg/kg/injection, schedule: Q04DX002 (ip), vehicle: saline with Tween-80) of the same molecule?
The survivor count was 0 of 3.

With `NC1=NC(=S)C2N=C(N=Nc3ccc(C(=O)NC(CCC(=O)O)C(=O)O)cc3)N=C2N1` (stereo not given) as the molecule, how does the T/C (dose: 0.78 mg/kg/injection, schedule: Q01DX009 (ip), vehicle: Klucel (hydroxypropylcellulose) (HPC)) read?
Its T/C is 132 % of control [4 of 6 alive].

What about the T/C (dose: 3.13 mg/kg/injection, schedule: Q01DX009 (ip), vehicle: Klucel (hydroxypropylcellulose) (HPC)) of the same molecule?
Its T/C is 134 and 149 % of control.

And the T/C (dose: 6.25 mg/kg/injection, schedule: Q01DX009 (ip), vehicle: Klucel (hydroxypropylcellulose) (HPC))?
The T/C was 140 % of control.

And the T/C (dose: 25.0 mg/kg/injection, schedule: Q04DX003 (ip), vehicle: Klucel (hydroxypropylcellulose) (HPC))?
The T/C was 132 and 148 % of control.

And the T/C (dose: 50.0 mg/kg/injection, schedule: Q04DX003 (ip), vehicle: Klucel (hydroxypropylcellulose) (HPC))?
The T/C was 144 % of control.

What about the T/C [7] of the same molecule?
Its T/C is 130 % of control.

And the survivor count [7]?
The survivor count was 2 of 6.

What about the survivor count [8] of the same molecule?
The survivor count was 1 of 6.

What about the survivor count [9] of the same molecule?
Its survivor count is 0 of 6.
